Experimental data: patent publication US20030092157
The comparison behind a weaker result is the experiment's own reference, which may not be listed here.

System: LXRα/RXR heterodimer (expressed in Cos-1)
Assay: activity in cells
Conditions: protein in cells, only the site is given

“AGGTTACTATCGGTCA (double strand) [+4-LXRE (ABC1 exon 1/promoter)]” was tested, and the “activity on this sequence” value (2 copies, strong activation) was “active”.
“GGATCACCTGAGGTCA (double strand) [-11050 LXRE (ABC1 intron 1)]” was tested, and the “activity on this sequence” value (4 copies, weaker activation) was “less active”.
For “AGATCACTTGAGGTCA (double strand) [-7188 LXRE (ABC1 intron 1)]”, the “activity on this sequence” value (2 copies, weaker activation) was “less active”.
